Source: the supplement of paper PMC10849652
The list shows a part of the results.

The chains behind the UniProt entries cited, without tags or fusion partners. Where a name states a change or a piece, a line headed by the entry shows the natural chain unless it says otherwise.
UniProt Q9HCG8: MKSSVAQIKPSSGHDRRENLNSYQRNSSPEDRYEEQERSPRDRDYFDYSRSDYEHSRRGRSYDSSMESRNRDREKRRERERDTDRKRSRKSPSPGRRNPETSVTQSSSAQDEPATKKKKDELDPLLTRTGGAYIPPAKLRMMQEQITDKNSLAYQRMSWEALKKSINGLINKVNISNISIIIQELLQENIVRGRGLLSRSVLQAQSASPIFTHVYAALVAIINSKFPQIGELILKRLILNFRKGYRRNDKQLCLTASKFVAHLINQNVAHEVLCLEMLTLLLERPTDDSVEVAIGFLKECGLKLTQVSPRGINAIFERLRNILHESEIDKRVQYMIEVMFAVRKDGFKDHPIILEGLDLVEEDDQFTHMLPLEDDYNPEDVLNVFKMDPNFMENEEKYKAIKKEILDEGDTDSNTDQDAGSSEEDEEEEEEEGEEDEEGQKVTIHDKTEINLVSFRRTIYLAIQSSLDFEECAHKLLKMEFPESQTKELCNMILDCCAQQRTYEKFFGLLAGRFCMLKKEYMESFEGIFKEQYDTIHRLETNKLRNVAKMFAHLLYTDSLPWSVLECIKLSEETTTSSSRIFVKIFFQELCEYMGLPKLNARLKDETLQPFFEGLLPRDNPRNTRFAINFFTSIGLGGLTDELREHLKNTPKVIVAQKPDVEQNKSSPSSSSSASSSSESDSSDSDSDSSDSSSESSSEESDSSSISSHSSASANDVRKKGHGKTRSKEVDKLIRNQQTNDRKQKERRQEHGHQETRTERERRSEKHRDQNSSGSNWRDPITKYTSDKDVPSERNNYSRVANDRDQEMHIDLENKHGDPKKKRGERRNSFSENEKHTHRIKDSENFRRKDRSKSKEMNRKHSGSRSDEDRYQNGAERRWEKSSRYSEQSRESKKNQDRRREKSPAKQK
UniProt Q6UXH1: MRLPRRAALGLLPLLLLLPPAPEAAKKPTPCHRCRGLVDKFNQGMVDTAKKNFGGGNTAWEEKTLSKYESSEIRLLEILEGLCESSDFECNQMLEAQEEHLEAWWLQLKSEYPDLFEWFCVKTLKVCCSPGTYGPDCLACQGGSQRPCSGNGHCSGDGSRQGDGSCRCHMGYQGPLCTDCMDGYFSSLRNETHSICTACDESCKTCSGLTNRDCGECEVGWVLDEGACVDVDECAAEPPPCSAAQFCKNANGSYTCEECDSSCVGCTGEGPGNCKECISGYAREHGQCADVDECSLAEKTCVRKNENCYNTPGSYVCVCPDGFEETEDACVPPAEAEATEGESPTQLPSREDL
UniProt Q9H467: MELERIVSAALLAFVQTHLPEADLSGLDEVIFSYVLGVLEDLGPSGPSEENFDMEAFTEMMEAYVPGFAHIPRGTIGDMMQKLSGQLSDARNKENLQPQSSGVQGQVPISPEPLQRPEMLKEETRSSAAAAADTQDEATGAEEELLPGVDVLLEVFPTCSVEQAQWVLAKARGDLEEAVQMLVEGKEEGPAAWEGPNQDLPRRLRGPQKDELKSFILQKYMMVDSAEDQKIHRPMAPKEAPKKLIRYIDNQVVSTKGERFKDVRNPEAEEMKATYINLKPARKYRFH
UniProt Q96F07, whole entry, looked up: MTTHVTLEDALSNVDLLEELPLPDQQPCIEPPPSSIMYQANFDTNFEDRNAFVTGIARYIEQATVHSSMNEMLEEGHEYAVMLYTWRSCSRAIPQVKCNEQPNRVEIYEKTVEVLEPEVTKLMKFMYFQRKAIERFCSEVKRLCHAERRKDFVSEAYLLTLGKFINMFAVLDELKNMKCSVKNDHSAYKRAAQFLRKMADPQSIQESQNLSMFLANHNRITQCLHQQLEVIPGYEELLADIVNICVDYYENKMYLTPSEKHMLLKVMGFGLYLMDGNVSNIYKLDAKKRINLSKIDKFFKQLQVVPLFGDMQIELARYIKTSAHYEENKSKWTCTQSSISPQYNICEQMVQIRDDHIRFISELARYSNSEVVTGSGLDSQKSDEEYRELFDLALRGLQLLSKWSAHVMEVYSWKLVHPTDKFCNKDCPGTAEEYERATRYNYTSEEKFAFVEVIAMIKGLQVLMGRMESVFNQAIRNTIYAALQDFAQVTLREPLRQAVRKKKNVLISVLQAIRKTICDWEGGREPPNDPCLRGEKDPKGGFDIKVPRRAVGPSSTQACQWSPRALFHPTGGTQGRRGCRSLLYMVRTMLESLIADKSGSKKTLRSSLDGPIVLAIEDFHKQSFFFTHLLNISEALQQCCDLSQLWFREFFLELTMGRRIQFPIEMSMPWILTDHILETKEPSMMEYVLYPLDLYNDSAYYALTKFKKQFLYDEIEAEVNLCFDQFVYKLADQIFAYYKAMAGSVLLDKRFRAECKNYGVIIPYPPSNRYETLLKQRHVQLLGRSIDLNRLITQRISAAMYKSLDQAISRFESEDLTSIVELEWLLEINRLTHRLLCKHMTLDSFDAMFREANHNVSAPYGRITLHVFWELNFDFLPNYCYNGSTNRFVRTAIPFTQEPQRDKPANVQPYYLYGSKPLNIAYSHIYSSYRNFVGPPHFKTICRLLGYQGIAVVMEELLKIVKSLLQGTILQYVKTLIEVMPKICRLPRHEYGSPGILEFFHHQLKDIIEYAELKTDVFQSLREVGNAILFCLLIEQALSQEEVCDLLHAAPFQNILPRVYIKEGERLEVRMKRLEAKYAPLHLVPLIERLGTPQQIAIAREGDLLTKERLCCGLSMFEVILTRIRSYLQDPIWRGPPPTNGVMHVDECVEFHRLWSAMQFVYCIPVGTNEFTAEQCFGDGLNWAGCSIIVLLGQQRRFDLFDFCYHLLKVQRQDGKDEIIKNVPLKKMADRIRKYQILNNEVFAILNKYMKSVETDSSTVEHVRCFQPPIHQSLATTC
UniProt P32929, whole entry, looked up: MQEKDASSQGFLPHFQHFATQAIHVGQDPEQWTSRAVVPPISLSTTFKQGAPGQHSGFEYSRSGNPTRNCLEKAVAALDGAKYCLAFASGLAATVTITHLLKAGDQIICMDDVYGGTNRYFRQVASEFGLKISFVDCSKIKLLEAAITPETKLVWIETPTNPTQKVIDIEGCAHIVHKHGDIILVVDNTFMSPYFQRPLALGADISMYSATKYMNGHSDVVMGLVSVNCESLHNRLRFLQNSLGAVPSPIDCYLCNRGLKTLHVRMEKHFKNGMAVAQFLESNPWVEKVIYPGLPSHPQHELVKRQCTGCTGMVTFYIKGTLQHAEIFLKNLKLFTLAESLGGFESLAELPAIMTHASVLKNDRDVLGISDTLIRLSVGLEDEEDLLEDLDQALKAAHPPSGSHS
UniProt Q9NRF8: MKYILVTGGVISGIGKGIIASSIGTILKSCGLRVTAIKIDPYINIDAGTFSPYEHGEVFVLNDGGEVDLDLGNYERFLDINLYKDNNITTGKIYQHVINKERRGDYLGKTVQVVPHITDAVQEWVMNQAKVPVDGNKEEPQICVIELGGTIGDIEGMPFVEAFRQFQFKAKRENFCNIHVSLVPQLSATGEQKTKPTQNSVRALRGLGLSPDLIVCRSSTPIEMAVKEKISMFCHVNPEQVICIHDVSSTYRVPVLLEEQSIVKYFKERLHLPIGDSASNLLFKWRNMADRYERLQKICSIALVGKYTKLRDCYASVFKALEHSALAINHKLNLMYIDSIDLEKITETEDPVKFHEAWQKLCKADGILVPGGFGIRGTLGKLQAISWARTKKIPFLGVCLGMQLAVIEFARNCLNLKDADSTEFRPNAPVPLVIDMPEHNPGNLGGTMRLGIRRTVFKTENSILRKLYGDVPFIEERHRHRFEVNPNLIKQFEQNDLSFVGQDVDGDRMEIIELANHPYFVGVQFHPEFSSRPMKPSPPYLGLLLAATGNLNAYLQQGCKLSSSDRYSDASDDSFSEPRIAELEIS
UniProt P13498: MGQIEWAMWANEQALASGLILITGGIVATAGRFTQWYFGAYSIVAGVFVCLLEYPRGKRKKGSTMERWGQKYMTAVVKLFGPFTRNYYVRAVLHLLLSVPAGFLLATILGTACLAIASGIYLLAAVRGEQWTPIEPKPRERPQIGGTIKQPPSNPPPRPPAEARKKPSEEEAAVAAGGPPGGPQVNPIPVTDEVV
UniProt Q7L1T6: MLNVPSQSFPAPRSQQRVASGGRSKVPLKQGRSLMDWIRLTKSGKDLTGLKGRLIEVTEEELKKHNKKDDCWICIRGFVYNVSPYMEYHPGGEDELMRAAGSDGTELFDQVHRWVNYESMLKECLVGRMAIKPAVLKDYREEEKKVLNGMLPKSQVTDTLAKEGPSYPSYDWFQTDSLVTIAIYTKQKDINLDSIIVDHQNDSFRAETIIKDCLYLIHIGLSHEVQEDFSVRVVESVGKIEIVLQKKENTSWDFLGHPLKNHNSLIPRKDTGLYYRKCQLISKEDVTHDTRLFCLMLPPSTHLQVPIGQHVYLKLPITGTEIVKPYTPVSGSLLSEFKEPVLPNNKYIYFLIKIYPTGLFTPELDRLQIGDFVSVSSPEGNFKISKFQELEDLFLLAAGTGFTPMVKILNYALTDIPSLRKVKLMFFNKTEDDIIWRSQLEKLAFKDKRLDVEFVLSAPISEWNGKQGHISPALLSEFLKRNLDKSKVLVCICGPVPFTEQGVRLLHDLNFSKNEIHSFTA
UniProt Q5TZA2: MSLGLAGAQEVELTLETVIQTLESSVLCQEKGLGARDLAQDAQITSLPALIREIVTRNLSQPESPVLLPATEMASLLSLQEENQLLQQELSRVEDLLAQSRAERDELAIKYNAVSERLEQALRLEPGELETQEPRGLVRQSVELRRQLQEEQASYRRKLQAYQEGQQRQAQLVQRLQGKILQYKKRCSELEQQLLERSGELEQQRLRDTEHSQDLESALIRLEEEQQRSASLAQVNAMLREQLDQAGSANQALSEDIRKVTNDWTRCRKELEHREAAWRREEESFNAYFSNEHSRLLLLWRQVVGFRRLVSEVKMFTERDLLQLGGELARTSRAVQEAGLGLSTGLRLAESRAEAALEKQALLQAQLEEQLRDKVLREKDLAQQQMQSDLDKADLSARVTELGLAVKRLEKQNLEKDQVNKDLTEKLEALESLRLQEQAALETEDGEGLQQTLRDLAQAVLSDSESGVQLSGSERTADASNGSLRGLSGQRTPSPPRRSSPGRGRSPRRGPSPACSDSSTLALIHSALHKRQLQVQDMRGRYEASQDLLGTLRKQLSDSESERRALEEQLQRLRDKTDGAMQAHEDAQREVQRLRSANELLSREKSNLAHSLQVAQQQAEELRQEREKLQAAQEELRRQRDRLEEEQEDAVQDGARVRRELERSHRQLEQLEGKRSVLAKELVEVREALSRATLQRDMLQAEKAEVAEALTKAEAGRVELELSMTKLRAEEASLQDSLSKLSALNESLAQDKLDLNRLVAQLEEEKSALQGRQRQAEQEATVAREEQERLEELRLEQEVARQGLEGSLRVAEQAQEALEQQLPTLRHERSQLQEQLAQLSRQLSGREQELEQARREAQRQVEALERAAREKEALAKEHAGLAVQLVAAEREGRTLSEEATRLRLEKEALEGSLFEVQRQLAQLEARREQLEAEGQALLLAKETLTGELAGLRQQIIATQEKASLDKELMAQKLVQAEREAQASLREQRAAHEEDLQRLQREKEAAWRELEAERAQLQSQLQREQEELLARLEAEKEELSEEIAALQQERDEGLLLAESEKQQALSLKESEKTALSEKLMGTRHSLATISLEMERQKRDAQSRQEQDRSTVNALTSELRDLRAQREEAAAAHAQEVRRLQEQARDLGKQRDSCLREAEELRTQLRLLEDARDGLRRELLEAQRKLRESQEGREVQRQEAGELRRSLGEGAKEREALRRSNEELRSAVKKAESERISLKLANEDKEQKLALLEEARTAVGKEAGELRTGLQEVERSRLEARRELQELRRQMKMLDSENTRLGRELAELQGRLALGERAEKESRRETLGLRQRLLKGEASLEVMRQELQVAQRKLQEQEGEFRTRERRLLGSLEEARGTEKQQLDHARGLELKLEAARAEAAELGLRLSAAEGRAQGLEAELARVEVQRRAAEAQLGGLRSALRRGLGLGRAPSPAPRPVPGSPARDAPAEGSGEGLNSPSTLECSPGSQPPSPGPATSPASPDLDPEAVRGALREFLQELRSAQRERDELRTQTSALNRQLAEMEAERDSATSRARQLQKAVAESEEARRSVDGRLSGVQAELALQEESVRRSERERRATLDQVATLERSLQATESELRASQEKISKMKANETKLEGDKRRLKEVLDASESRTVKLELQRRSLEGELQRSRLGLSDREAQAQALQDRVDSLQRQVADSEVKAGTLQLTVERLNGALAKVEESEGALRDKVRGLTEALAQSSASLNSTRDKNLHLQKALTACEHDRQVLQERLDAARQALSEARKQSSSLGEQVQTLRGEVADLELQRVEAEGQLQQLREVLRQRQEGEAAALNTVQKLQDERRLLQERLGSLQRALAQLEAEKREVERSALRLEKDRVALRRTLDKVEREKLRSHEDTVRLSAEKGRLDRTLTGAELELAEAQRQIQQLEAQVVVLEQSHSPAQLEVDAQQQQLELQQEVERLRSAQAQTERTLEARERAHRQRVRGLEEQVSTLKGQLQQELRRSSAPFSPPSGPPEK

Experiments:
Assay in all cases: log2 fold change, soluble protein after heating vs DMSO (PISA); higher = thermal stabilisation; K562 lysate, 10 uM; active = over 0.2 and 3.5 SD of the protein, either way, in both replicates (recomputed)
lapatinib = compound: CS(=O)(=O)CCNCc1ccc(-c2ccc3ncnc(Nc4ccc(OCc5cccc(F)c5)c(Cl)c4)c3c2)o1 [lapatinib]
Summary of the method: (§1)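 Pellets of K562 cells were dounce-homogenised in PBS pH 7.4 with 1 mM MgCl2, and the crude extract was held at 1 mg/mL protein for a 30 min treatment with 10 μM compound. Aliquots were heated for 3 min over 48°C-58°C and pooled before NP-40 was added to 0.5% at 4°C. The supernatant from 21,000xg for 90 min was quantified by TMTpro 16plex LC-MS/MS with channel sums equalised. Values are reported from duplicates as log-two fold change in thermal stability relative to solvent controls.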

pictilisib = compound: CS(=O)(=O)N1CCN(Cc2cc3nc(-c4cccc5[nH]ncc45)nc(N4CCOCC4)c3s2)CC1 [pictilisib]
Summary of the method: as §1

crizotinib = compound: C[C@@H](Oc1cc(-c2cnn(C3CCNCC3)c2)cnc1N)c1c(Cl)ccc(F)c1Cl [crizotinib]
Summary of the method: as §1

[1] = compound: C[C@H](C1=CC=C(C=C1)C(=O)NC2=C3C=CNC3=NC=C2)N
Summary of the method: as §1

duvelisib = compound: C[C@H](Nc1ncnc2nc[nH]c12)c1cc2cccc(Cl)c2c(=O)n1-c1ccccc1 [duvelisib]
Summary of the method: as §1

gandotinib = compound: Cc1cc(Nc2cc(CN3CCOCC3)c3nc(C)c(Cc4ccc(Cl)cc4F)n3n2)n[nH]1 [gandotinib]
Summary of the method: as §1

tozasertib = compound: Cc1cc(Nc2cc(N3CCN(C)CC3)nc(Sc3ccc(NC(=O)C4CC4)cc3)n2)n[nH]1 [tozasertib]
Summary of the method: as §1

doramapimod = compound: Cc1ccc(-n2nc(C(C)(C)C)cc2NC(=O)Nc2ccc(OCCN3CCOCC3)c3ccccc23)cc1 [doramapimod]
Summary of the method: as §1

bafetinib = compound: Cc1ccc(NC(=O)c2ccc(CN3CC[C@H](N(C)C)C3)c(C(F)(F)F)c2)cc1Nc1nccc(-c2cncnc2)n1 [bafetinib]
Summary of the method: as §1

[2] = compound: Cc1cccc(CC(=O)N2CCc3c2ccc(-c2cn(C)c4ncnc(N)c24)c3F)n1
Summary of the method: as §1

nilotinib = compound: Cc1cn(-c2cc(NC(=O)c3ccc(C)c(Nc4nccc(-c5cccnc5)n4)c3)cc(C(F)(F)F)c2)cn1 [nilotinib]
Summary of the method: as §1

[3] = compound: Cc1nc(Nc2n[nH]c3c2CN(C(=O)N[C@H](CN(C)C)c2ccccc2)C3(C)C)c2sccc2n1
Summary of the method: as §1

dasatinib = compound: Cc1nc(Nc2ncc(C(=O)Nc3c(C)cccc3Cl)s2)cc(N2CCN(CCO)CC2)n1 [dasatinib]
Summary of the method: as §1

[4] = compound: Cc1ncc(-c2ccnc(Nc3ccc(S(C)(=O)=O)cc3)n2)n1C(C)C
Summary of the method: as §1

[5] = compound: Cn1cc(-c2ccc3c(c2)CCN3C(=O)Cc2cccc(C(F)(F)F)c2)c2c(N)ncnc21
Summary of the method: as §1

quisinostat = compound: Cn1cc(CNCC2CCN(c3ncc(C(=O)NO)cn3)CC2)c2ccccc21 [quisinostat]
Summary of the method: as §1

tipifarnib = compound: Cn1cncc1[C@@](N)(c1ccc(Cl)cc1)c1ccc2c(c1)c(-c1cccc(Cl)c1)cc(=O)n2C [tipifarnib]
Summary of the method: as §1

[6] = compound: NC(=O)Nc1cc(-c2cccc(F)c2)sc1C(=O)N[C@H]1CCCNC1
Summary of the method: as §1

[7] = compound: NC(=O)c1cnc(N[C@@H]2CCCC[C@@H]2N)nc1Nc1cccc(-n2nccn2)c1
Summary of the method: as §1

[8] = compound: NC1(c2ccc(-c3nc4ccn5c(=O)[nH]nc5c4cc3-c3ccccc3)cc2)CCC1
Summary of the method: as §1

Row | Target | log2 fold change (lapatinib) | log2 fold change (pictilisib) | log2 fold change (crizotinib) | log2 fold change [1] | log2 fold change (duvelisib) | log2 fold change (gandotinib) | log2 fold change (tozasertib) | log2 fold change (doramapimod) | log2 fold change (bafetinib) | log2 fold change [2] | log2 fold change (nilotinib) | log2 fold change [3] | log2 fold change (dasatinib) | log2 fold change [4] | log2 fold change [5] | log2 fold change (quisinostat) | log2 fold change (tipifarnib) | log2 fold change [6] | log2 fold change [7] | log2 fold change [8]
1 | CWC22 (UniProt Q9HCG8) | inactive: 0.059 | inactive: -0.027 | inactive: -0.051 | active: 0.46 | inactive: 0.011 | inactive: -0.207 | inactive: 0.072 | inactive: -0.019 | inactive: -0.088 | inactive: -0.109 | inactive: 0.043 | inactive: 0.017 | inactive: -0.015 | inactive: 0.002 | inactive: 0.02 | inactive: 0.015 | inactive: 0 | inactive: 0.011 | inactive: 0.023 | inactive: -0.011
2 | CRELD2 isoform 5 (UniProt Q6UXH1) | inactive: 0.019 | inactive: -0.036 | inactive: 0.121 | inactive: -0.056 | inactive: 0.03 | inactive: 0.006 | inactive: -0.146 | inactive: 0.019 | inactive: 0.116 | inactive: 0.028 | inactive: 0.126 | inactive: -0.147 | inactive: 0.069 | inactive: 0.215 | inactive: -0.017 | inactive: 0 | inactive: -0.096 | inactive: -0.038 | inactive: 0.015 | inactive: 0.015
3 | CUEDC2 (UniProt Q9H467) | inactive: 0.018 | inactive: -0.119 | inactive: 0.001 | active: 0.528 | inactive: -0.009 | inactive: -0.026 | inactive: -0.055 | inactive: 0.022 | inactive: -0.073 | inactive: -0.082 | inactive: -0.038 | inactive: 0.055 | inactive: 0.015 | inactive: 0.028 | inactive: 0.009 | inactive: -0.046 | inactive: 0.009 | inactive: -0.012 | inactive: -0.021 | inactive: 0.016
4 | CYFIP2 (UniProt Q96F07) | inactive: -0.025 | inactive: -0.024 | inactive: -0.021 | inactive: -0.026 | inactive: -0.022 | inactive: 0.012 | inactive: -0.013 | inactive: 0.006 | inactive: -0.029 | inactive: 0.014 | inactive: 0.023 | inactive: -0.049 | inactive: 0.005 | inactive: -0.007 | inactive: 0.009 | inactive: -0.014 | inactive: -0.005 | inactive: -0.008 | inactive: 0.001 | inactive: -0.024
5 | CTH (UniProt P32929) | inactive: 0.014 | inactive: 0.013 | inactive: -0.002 | inactive: -0.05 | inactive: 0.017 | inactive: 0.054 | inactive: 0.001 | inactive: 0.025 | inactive: 0.068 | inactive: 0.002 | inactive: -0.022 | inactive: 0.039 | inactive: 0.043 | inactive: 0.005 | inactive: -0.032 | inactive: -0.027 | inactive: -0.048 | inactive: -0.004 | inactive: -0.019 | inactive: -0.01
6 | CSTF2T (UniProt Q9H0L4) | inactive: 0.001 | inactive: -0.035 | inactive: 0.044 | inactive: -0.005 | inactive: -0.004 | inactive: 0.012 | inactive: -0.014 | inactive: -0.003 | inactive: 0.011 | inactive: 0.076 | inactive: 0.01 | inactive: 0.011 | inactive: 0.014 | inactive: -0.033 | inactive: -0.021 | inactive: 0.043 | inactive: 0.009 | inactive: -0.013 | inactive: 0.014 | inactive: -0.015
7 | CSNK1G3 (UniProt Q9Y6M4) | inactive: -0.155 | inactive: 0.118 | inactive: 0.026 | inactive: 0.214 | inactive: -0.042 | inactive: -0.032 | inactive: -0.048 | inactive: -0.003 | inactive: -0.09 | inactive: -0.021 | inactive: -0.029 | active: 0.428 | inactive: 0.002 | active: 0.388 | inactive: 0.014 | inactive: -0.067 | inactive: 0.001 | active: 0.397 | inactive: 0 | inactive: 0.086
8 | CTPS2 (UniProt Q9NRF8) | inactive: -0.025 | inactive: -0.018 | inactive: -0.004 | inactive: -0.032 | inactive: 0.016 | inactive: -0.002 | inactive: 0.009 | inactive: 0.021 | inactive: 0.077 | inactive: 0.003 | inactive: -0.005 | inactive: 0.006 | inactive: -0.035 | inactive: -0.002 | inactive: 0.01 | inactive: 0.029 | inactive: 0.003 | inactive: 0.001 | inactive: -0.003 | inactive: 0.012
9 | CUL4A (UniProt Q13619) | inactive: -0.008 | inactive: -0.023 | inactive: -0.021 | inactive: -0.029 | inactive: -0.026 | inactive: -0.019 | inactive: -0.016 | inactive: 0.018 | inactive: -0.021 | inactive: 0.036 | inactive: -0.006 | inactive: 0.002 | inactive: -0.016 | inactive: 0.01 | inactive: -0.01 | inactive: -0.031 | inactive: 0.011 | inactive: 0.005 | inactive: -0.012 | inactive: -0.005
10 | CTSH (UniProt P09668) | inactive: 0 | inactive: -0.063 | inactive: 0.041 | inactive: -0.013 | inactive: 0.003 | inactive: 0.022 | inactive: -0.035 | inactive: -0.089 | inactive: 0.147 | inactive: -0.064 | inactive: 0.022 | inactive: 0.013 | inactive: 0.046 | inactive: 0.023 | inactive: 0.004 | inactive: -0.022 | inactive: 0.001 | inactive: -0.029 | inactive: -0.008 | inactive: -0.018
11 | CT47A1 (UniProt Q5JQC4) | inactive: -0.026 | inactive: -0.085 | inactive: 0.078 | inactive: 0.06 | inactive: 0.063 | inactive: -0.074 | inactive: -0.024 | inactive: -0.006 | inactive: -0.043 | inactive: -0.028 | inactive: 0.02 | inactive: 0.001 | inactive: -0.025 | inactive: -0.031 | inactive: 0.061 | inactive: 0.026 | inactive: 0 | inactive: 0.021 | inactive: -0.037 | inactive: 0.018
12 | CYBA (UniProt P13498) | inactive: -0.132 | inactive: -0.017 | inactive: -0.007 | inactive: 0.028 | inactive: -0.044 | inactive: -0.074 | inactive: 0.067 | inactive: -0.009 | inactive: -0.031 | inactive: -0.038 | inactive: -0.03 | inactive: 0.094 | inactive: -0.057 | inactive: -0.035 | inactive: 0.022 | inactive: 0.056 | inactive: 0.038 | inactive: 0.018 | inactive: -0.048 | inactive: 0.019
13 | CSDE1 isoform 4 (UniProt O75534) | inactive: 0.001 | inactive: -0.004 | inactive: -0.006 | inactive: 0.041 | inactive: -0.015 | inactive: -0.095 | inactive: 0.003 | inactive: 0.005 | inactive: -0.021 | inactive: -0.017 | inactive: 0.01 | inactive: -0.018 | inactive: -0.012 | inactive: 0.001 | inactive: 0.048 | inactive: 0.014 | inactive: 0.012 | inactive: 0.041 | inactive: -0.009 | inactive: -0.016
14 | CYB5R4 (UniProt Q7L1T6) | inactive: 0.015 | inactive: 0.014 | inactive: -0.108 | inactive: -0.024 | inactive: -0.018 | inactive: 0.014 | inactive: -0.014 | inactive: 0.059 | inactive: -0.089 | inactive: 0.077 | inactive: -0.072 | inactive: 0.059 | inactive: -0.025 | inactive: 0.057 | inactive: 0.058 | inactive: -0.099 | inactive: -0.003 | inactive: 0.076 | inactive: -0.038 | inactive: -0.013
15 | CROCC (UniProt Q5TZA2) | inactive: -0.138 | inactive: -0.051 | inactive: 0.014 | inactive: -0.23 | inactive: 0.105 | inactive: 0.19 | inactive: 0.097 | inactive: 0.135 | inactive: -0.032 | inactive: 0.151 | inactive: -0.027 | inactive: -0.031 | inactive: -0.076 | inactive: -0.036 | inactive: 0.199 | inactive: 0.003 | inactive: 0.001 | inactive: -0.031 | inactive: 0.163 | inactive: 0.057
16 | CTSA (UniProt P10619) | inactive: 0.025 | inactive: -0.006 | inactive: -0.023 | inactive: 0.022 | inactive: -0.039 | inactive: 0.017 | inactive: -0.026 | inactive: 0.02 | inactive: -0.055 | inactive: 0.029 | inactive: 0.023 | inactive: 0.008 | inactive: -0.029 | inactive: -0.03 | inactive: 0.045 | inactive: -0.018 | inactive: 0.034 | inactive: 0.023 | inactive: 0.024 | inactive: -0.063

Individual results from the list:
log2 fold change (tozasertib) with CSNK1G3 (UniProt Q9Y6M4) is entered as inactive: -0.048
log2 fold change [3] with CYBA (UniProt P13498) is entered as inactive: 0.094
